This passage reports binding results from paper doi:10.1101/2024.03.15.585150 (bioRxiv, 2024).

Protein sequences, listed by entry. Tags and fused reporters are not part of them. Lines headed by an entry give the natural chain unless they say otherwise; changes in a name come on top. Chains listed by the source or under a name are the forms on record and can include a tag or linker.
KIX domain of CBP coactivator (KIX region 586-672) (P45481, form named): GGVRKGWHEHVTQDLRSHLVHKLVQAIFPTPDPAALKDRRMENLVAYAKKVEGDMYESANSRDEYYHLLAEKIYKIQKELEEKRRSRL

In this assay the target is native Sp1-9aaTAD peptide, Biotin-GSS-…. Description: BLI.

These are yes or no findings as the source states them, for the method shown.

In the case of “KIX domain of CBP coactivator (KIX region 586-672) (from UniProt P45481 586-672) (domain or fragment)”, the binding entry is listed as “no binding (tested: 3-16 μM)”.
